Measurements published in the supplement of paper PMC12823440, “Inhibitors supercharge kinase turnover through native proteolytic circuits” (Nature, 2025).
Where a name gives a salt, the structure may show the parent alone. Some of the results follow. The calls rarely recur for the same compound in another form.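 In K562 cells expressing nanoluciferase-fused kinases, luminescence was recorded at 4 h intervals between 2 and 18 h, normalized as percent of control with DMSO at 100% and a positive control at 0%. A significant (2 sigma) signal drop marks a time point as decreased. The authors' rule for a hit is not shown and takes in more than the number of time points.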

Chains of the proteins cited; added tags and fusions are not shown. Lines headed by an entry give the natural chain unless they say otherwise; changes in a name come on top.
UniProt P50613: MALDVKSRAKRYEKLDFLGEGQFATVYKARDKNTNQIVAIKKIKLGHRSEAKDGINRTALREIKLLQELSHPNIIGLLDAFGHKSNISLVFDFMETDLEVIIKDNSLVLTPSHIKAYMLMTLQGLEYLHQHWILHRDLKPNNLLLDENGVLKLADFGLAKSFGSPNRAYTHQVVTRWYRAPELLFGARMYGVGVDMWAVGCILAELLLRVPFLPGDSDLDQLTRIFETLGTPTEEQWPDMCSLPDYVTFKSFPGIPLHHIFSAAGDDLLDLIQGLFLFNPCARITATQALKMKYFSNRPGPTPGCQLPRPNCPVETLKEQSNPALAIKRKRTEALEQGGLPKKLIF
UniProt P50750, whole entry: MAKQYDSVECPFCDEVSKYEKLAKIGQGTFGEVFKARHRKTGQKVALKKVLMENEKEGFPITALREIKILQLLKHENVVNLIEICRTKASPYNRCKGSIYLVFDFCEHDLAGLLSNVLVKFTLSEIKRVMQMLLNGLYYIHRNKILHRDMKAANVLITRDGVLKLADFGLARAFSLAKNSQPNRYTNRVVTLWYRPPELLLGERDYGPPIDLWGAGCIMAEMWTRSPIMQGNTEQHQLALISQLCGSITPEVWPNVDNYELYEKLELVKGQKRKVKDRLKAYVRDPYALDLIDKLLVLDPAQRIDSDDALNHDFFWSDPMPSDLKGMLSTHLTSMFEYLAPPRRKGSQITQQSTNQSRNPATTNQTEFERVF
UniProt O96017, whole entry: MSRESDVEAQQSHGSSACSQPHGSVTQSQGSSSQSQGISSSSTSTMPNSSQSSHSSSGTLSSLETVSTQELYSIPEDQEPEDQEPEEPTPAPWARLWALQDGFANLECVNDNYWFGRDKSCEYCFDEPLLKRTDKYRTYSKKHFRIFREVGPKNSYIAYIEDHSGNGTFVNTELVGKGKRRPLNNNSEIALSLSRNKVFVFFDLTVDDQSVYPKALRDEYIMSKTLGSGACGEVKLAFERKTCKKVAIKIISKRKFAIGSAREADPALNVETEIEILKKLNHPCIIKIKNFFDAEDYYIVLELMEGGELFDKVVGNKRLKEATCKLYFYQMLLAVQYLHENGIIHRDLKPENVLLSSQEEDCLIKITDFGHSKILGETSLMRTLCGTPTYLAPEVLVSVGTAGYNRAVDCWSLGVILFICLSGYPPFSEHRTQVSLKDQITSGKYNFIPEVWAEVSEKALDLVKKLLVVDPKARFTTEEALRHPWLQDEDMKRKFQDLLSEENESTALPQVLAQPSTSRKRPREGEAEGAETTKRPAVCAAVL
UniProt P07333, whole entry: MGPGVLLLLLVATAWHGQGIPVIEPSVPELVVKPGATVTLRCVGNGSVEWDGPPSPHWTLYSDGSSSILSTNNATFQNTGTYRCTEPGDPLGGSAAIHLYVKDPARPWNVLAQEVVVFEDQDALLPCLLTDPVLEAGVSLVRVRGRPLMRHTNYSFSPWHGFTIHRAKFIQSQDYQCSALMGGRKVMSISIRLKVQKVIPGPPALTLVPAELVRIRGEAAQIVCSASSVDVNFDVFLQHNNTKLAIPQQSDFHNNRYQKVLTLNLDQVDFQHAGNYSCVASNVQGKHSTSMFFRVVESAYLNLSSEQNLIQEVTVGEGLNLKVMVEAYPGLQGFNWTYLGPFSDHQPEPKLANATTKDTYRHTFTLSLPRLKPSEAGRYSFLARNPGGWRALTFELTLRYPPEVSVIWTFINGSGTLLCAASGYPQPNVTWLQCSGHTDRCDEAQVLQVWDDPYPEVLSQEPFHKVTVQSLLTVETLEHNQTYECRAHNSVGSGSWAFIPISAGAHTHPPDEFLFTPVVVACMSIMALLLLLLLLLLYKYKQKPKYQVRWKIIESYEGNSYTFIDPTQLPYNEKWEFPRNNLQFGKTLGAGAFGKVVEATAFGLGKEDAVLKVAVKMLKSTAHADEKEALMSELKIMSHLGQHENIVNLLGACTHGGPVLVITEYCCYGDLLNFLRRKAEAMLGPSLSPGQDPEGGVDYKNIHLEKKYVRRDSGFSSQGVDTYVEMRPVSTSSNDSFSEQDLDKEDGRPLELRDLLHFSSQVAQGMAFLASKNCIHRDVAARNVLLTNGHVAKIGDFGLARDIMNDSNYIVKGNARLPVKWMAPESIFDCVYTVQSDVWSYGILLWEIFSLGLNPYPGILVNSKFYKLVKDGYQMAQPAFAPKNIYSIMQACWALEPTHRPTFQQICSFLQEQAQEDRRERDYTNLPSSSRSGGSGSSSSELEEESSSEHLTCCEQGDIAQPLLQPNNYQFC
UniProt P41240: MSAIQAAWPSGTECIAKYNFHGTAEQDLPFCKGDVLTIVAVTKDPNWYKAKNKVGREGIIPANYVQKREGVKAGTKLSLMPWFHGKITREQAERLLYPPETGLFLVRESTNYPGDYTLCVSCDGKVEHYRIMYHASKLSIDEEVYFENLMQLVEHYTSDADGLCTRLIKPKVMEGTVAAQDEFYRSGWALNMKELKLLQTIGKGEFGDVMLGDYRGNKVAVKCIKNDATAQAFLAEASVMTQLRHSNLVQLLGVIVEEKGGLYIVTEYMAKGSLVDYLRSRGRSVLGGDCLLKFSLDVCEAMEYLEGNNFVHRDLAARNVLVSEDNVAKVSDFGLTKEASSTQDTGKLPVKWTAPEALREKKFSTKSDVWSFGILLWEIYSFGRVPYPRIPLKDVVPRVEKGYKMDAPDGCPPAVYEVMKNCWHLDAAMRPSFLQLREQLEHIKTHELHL
UniProt P48729: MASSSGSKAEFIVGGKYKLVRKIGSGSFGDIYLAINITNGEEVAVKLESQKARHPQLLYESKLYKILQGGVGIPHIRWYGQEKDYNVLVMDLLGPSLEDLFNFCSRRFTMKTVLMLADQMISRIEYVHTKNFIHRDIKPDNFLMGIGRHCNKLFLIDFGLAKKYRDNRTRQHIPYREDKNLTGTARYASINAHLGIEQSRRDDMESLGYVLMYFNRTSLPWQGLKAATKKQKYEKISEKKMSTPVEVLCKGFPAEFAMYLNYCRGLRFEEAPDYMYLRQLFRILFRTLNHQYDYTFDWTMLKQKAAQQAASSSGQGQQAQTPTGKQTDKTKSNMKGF
UniProt P48730: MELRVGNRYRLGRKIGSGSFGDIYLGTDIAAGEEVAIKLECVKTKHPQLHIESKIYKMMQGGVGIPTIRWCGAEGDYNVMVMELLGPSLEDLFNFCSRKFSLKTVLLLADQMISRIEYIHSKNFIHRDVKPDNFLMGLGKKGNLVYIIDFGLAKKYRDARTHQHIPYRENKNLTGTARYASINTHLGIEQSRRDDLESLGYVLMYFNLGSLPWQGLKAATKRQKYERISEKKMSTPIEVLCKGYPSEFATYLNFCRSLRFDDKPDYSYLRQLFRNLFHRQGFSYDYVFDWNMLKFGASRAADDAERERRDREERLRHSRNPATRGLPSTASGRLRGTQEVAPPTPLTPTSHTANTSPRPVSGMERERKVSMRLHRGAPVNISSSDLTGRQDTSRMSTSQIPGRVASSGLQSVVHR
UniProt Q08345: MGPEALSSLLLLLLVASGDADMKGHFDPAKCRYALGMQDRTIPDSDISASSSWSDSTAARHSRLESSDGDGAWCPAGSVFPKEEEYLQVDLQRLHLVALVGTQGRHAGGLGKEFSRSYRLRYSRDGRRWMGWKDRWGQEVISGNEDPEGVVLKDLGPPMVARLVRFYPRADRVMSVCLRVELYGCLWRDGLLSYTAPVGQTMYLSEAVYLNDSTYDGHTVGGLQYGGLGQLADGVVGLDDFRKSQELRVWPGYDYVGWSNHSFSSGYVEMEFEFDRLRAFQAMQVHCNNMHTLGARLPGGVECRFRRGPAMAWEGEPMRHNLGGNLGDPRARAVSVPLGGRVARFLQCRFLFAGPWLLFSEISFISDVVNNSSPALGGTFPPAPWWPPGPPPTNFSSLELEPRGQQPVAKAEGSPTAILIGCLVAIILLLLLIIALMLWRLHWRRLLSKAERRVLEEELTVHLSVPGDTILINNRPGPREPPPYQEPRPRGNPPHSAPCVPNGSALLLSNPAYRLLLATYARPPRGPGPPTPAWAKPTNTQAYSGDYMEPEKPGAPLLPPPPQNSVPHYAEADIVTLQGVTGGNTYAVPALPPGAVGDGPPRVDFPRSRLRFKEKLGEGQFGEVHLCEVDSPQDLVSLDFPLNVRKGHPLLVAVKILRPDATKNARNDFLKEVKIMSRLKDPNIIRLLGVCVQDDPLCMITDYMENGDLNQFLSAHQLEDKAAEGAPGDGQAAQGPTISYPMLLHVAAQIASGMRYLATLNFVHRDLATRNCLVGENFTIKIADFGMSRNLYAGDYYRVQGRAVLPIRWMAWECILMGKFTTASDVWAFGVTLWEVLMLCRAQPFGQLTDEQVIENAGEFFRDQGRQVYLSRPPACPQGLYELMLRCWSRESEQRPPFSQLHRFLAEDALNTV
UniProt Q9Y463, whole entry, looked up: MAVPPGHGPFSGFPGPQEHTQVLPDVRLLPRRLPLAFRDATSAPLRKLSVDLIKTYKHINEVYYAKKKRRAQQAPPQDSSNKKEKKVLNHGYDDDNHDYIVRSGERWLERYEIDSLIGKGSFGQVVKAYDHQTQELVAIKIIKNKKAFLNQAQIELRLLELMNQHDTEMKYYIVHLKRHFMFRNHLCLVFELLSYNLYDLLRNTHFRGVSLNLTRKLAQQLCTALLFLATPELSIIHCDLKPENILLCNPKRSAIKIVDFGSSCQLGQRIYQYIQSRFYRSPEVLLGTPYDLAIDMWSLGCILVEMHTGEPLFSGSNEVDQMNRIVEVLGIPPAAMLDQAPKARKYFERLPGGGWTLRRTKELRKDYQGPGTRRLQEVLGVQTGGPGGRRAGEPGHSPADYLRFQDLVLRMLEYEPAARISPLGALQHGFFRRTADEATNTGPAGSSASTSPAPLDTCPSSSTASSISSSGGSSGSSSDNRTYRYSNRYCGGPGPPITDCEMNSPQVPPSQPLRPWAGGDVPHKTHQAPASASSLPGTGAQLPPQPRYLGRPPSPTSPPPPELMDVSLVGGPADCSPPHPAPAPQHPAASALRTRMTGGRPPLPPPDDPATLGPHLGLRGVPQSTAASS
UniProt Q92630: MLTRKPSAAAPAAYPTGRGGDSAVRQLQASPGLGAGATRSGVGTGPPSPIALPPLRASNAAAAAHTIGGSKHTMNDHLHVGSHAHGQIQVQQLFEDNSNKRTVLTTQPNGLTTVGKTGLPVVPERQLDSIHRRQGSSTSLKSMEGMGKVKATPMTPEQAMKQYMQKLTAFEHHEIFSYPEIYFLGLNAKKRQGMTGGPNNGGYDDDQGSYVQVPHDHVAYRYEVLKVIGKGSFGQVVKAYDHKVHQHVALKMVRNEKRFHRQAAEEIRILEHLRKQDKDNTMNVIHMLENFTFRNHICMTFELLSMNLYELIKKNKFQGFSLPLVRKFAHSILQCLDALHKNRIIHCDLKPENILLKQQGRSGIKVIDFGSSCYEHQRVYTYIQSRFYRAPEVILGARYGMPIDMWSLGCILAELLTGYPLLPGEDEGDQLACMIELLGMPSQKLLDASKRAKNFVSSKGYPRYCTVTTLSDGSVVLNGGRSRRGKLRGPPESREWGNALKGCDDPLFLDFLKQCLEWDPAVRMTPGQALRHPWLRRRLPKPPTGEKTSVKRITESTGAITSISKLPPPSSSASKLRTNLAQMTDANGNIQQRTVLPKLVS

Experiments:
Assay in all cases: kinase-Nluc reporter destabilization hit call (1 = scored as downregulated) (binary); higher = compound decreases kinase abundance
Conditions in all cases: K562; 2-18 h
CDK7 = CDK7 (UniProt P50613)
CDK9 = CDK9 (UniProt P50750)
CHEK2 = CHEK2 (UniProt O96017)
CSF1R = CSF1R (UniProt P07333)
CSK = CSK (UniProt P41240)
CSNK1A1 = CSNK1A1 (UniProt P48729)
CSNK1D = CSNK1D (UniProt P48730)
DDR1 = DDR1 (UniProt Q08345)
DYRK1B = DYRK1B (UniProt Q9Y463)
DYRK2 = DYRK2 (UniProt Q92630)

Measured: kinase-Nluc reporter destabilization hit call

COc1cc(-c2cc(-c3ccc(N4CCNCC4)cc3)cnc2C)cc(OC)c1OC (10 µM)
inactive: CDK7 = 0 | CDK9 = 0 | CHEK2 = 0 | CSF1R 0 | CSK 0 | CSNK1A1 = 0 | CSNK1D 0 | DDR1 = 0 | DYRK1B 0 | DYRK2 = 0

COc1cc2nccc(Oc3ccc(NC(=O)c4cn(C(C)C)c(=O)n(-c5ccc(F)cc5)c4=O)cc3F)c2cc1OC (0.5 µM)
inactive: CDK7 = 0 | CDK9 = 0 | CHEK2 = 0 | CSF1R 0 | CSK 0 | CSNK1A1 = 0 | CSNK1D 0 | DDR1 = 0 | DYRK1B 0 | DYRK2 = 0

CCCCCc1ccc(/C=C/[C@H](O)[C@@H](CO)NC)cc1 [SK1-I (hydrochloride)] (10 µM)
inactive: CDK7 = 0 | CDK9 = 0 | CHEK2 = 0 | CSF1R 0 | CSK 0 | CSNK1A1 = 0 | CSNK1D 0 | DDR1 = 0 | DYRK1B 0 | DYRK2 = 0

CN1CCN(c2cc(-c3ccncc3)c(-c3ccc4ccccc4c3)nn2)CC1 (10 µM)
inactive: CDK7 = 0 | CDK9 = 0 | CHEK2 = 0 | CSF1R 0 | CSK 0 | CSNK1A1 = 0 | CSNK1D 0 | DDR1 = 0 | DYRK1B 0 | DYRK2 = 0

Cc1nc[nH]c1CN1CCN(C(=O)N[C@@H](CC(C)C)C(=O)O)[C@@H](Cc2ccccc2)C1=O (10 µM)
inactive: CDK7 = 0 | CDK9 = 0 | CHEK2 = 0 | CSF1R 0 | CSK 0 | CSNK1A1 = 0 | CSNK1D 0 | DDR1 = 0 | DYRK1B 0 | DYRK2 = 0

Three compounds from above, sorted by heavy-atom count, falling.
COc1cc2nccc(Oc3ccc(NC(=O)c4cn(C(C)C)c(=O)n(-c5ccc(F)cc5)c4=O)cc3F)c2cc1OC (0.5 µM)
inactive: CDK7 = 0 | CDK9 = 0 | CHEK2 = 0 | CSF1R 0 | CSK 0 | CSNK1A1 = 0 | CSNK1D 0 | DDR1 = 0 | DYRK1B 0 | DYRK2 = 0

Cc1nc[nH]c1CN1CCN(C(=O)N[C@@H](CC(C)C)C(=O)O)[C@@H](Cc2ccccc2)C1=O (10 µM)
inactive: CDK7 = 0 | CDK9 = 0 | CHEK2 = 0 | CSF1R 0 | CSK 0 | CSNK1A1 = 0 | CSNK1D 0 | DDR1 = 0 | DYRK1B 0 | DYRK2 = 0

COc1cc(-c2cc(-c3ccc(N4CCNCC4)cc3)cnc2C)cc(OC)c1OC (10 µM)
inactive: CDK7 = 0 | CDK9 = 0 | CHEK2 = 0 | CSF1R 0 | CSK 0 | CSNK1A1 = 0 | CSNK1D 0 | DDR1 = 0 | DYRK1B 0 | DYRK2 = 0

Remaining list, next part.

Cc1cccc(-c2[nH]ncc2-c2ccnc3ccccc23)n1 (10 µM)
inactive: CDK7 = 0 | CDK9 = 0 | CHEK2 = 0 | CSF1R 0 | CSK 0 | CSNK1A1 = 0 | CSNK1D 0 | DDR1 = 0 | DYRK1B 0 | DYRK2 = 0

Cn1cc(-c2cc(Oc3cc(F)c(NC(=O)C4(C(=O)Nc5ccccc5)CC4)cc3F)ccn2)cn1 (2.5 µM)
inactive: CDK7 = 0 | CDK9 = 0 | CHEK2 = 0 | CSF1R 0 | CSK 0 | CSNK1A1 = 0 | CSNK1D 0 | DDR1 = 0 | DYRK1B 0 | DYRK2 = 0

CC(O)(C#Cc1ccc2c(c1)N(c1nc(N)ncc1Cl)CC2)c1nccs1 (stereo not given) (2.5 µM)
inactive: CDK7 = 0 | CDK9 = 0 | CHEK2 = 0 | CSF1R 0 | CSK 0 | CSNK1A1 = 0 | CSNK1D 0 | DDR1 = 0 | DYRK1B 0 | DYRK2 = 0

CN1CCN(c2ccc(Nc3ncc4cc(C#N)c(=O)n(C5CCCC5)c4n3)cc2)CC1 (10 µM)
inactive: CDK7 = 0 | CDK9 = 0 | CHEK2 = 0 | CSF1R 0 | CSK 0 | CSNK1A1 = 0 | CSNK1D 0 | DDR1 = 0 | DYRK1B 0 | DYRK2 = 0

COc1cc(N2CCC(N3CCN(C)CC3)CC2)ccc1Nc1ncc(Cl)c(-c2c[nH]c3ccccc23)n1 (2.5 µM)
inactive: CDK7 = 0 | CDK9 = 0 | CHEK2 = 0 | CSF1R 0 | CSK 0 | CSNK1A1 = 0 | CSNK1D 0 | DDR1 = 0 | DYRK1B 0 | DYRK2 = 0

Cc1c(Cl)cccc1S(=O)(=O)Nc1nc(NCCc2ccccc2)nc2c1CN(Cc1ccccc1)CC2 (2.5 µM)
inactive: CDK7 = 0 | CDK9 = 0 | CHEK2 = 0 | CSF1R 0 | CSK 0 | CSNK1A1 = 0 | CSNK1D 0 | DDR1 = 0 | DYRK1B 0 | DYRK2 = 0

CCc1c[nH]c2ncnc(N3CC[C@](N)(CNC(=O)c4ccc(F)cc4F)C3)c12 (10 µM)
inactive: CDK7 = 0 | CDK9 = 0 | CHEK2 = 0 | CSF1R 0 | CSK 0 | CSNK1A1 = 0 | CSNK1D 0 | DDR1 = 0 | DYRK1B 0 | DYRK2 = 0

N[C@@H]1CCCN(c2c(/C=C3\SC(=O)NC3=O)cccc2-c2ccccc2)C1 (10 µM)
inactive: CDK7 = 0 | CDK9 = 0 | CHEK2 = 0 | CSF1R 0 | CSK 0 | CSNK1A1 = 0 | CSNK1D 0 | DDR1 = 0 | DYRK1B 0 | DYRK2 = 0

CO[C@H]1C[C@@H]2CC[C@@H](C)[C@@](O)(O2)C(=O)C(=O)N2CCCC[C@H]2C(=O)O[C@H]([C@H](C)C[C@@H]2CC[C@@H](OC(=O)C(C)(CO)CO)[C@H](OC)C2)CC(=O)[C@H](C)/C=C(\C)[C@@H](O)[C@@H](OC)C(=O)[C@H](C)C[C@H](C)/C=C/C=C/C=C/1C [Temsirolimus] (2.5 µM)
inactive: CDK7 = 0 | CDK9 = 0 | CHEK2 = 0 | CSF1R 0 | CSK 0 | CSNK1A1 = 0 | CSNK1D 0 | DDR1 = 0 | DYRK1B 0 | DYRK2 = 0

Nc1ncc(C(=O)NC2CN(C(=O)C3CC3)C2)c2ccc(-c3cccc(F)c3)nc12 (2 µM)
inactive: CDK7 = 0 | CDK9 = 0 | CHEK2 = 0 | CSF1R 0 | CSK 0 | CSNK1A1 = 0 | CSNK1D 0 | DDR1 = 0 | DYRK1B 0 | DYRK2 = 0

Cc1cc(CSc2ccccc2C(=O)NCCNc2ccc(C(F)(F)F)cc2[N+](=O)[O-])on1 (10 µM)
inactive: CDK7 = 0 | CDK9 = 0 | CHEK2 = 0 | CSF1R 0 | CSK 0 | CSNK1A1 = 0 | CSNK1D 0 | DDR1 = 0 | DYRK1B 0 | DYRK2 = 0

C=CC(=O)N1CC[C@@H](Oc2nc(Nc3ccc(N4CCC(N5CCN(C)CC5)CC4)cc3)c(C(N)=O)nc2CC)C1 [Naquotinib (mesylate)] (2.5 µM)
inactive: CDK7 = 0 | CDK9 = 0 | CHEK2 = 0 | CSF1R 0 | CSK 0 | CSNK1A1 = 0 | CSNK1D 0 | DDR1 = 0 | DYRK1B 0 | DYRK2 = 0

C[C@H]1O[C@@H](O[C@H]2CC[C@@]3(C)[C@@H](CC[C@]4(C)[C@@H]3C=C[C@]35OC[C@@]6(CCC(C)(C)C[C@H]63)[C@H](O)C[C@]54C)[C@]2(C)CO)[C@H](O)[C@@H](O[C@@H]2O[C@H](CO)[C@@H](O)[C@H](O)[C@H]2O)[C@H]1O [Saikosaponin D] (2.5 µM)
inactive: CDK7 = 0 | CDK9 = 0 | CHEK2 = 0 | CSF1R 0 | CSK 0 | CSNK1A1 = 0 | CSNK1D 0 | DDR1 = 0 | DYRK1B 0 | DYRK2 = 0

Nc1ncnc2c1nc(Br)n2[C@@H]1O[C@@H]2COP(=O)(O)O[C@H]2[C@H]1O [8-Bromo-cAMP sodium salt] (10 µM)
inactive: CDK7 = 0 | CDK9 = 0 | CHEK2 = 0 | CSF1R 0 | CSK 0 | CSNK1A1 = 0 | CSNK1D 0 | DDR1 = 0 | DYRK1B 0 | DYRK2 = 0

O=Nc1c(-c2c(O)[nH]c3cc(Br)ccc23)[nH]c2ccccc12 [GSK 3 Inhibitor IX] (2.5 µM)
inactive: CDK7 = 0 | CDK9 = 0 | CHEK2 = 0 | CSF1R 0 | CSK 0 | CSNK1A1 = 0 | CSNK1D 0 | DDR1 = 0 | DYRK1B 0 | DYRK2 = 0

O=C(Nc1cccnc1)c1cc(-c2ccnc(F)c2)ccc1OCc1ccccc1 (10 µM)
inactive: CDK7 = 0 | CDK9 = 0 | CHEK2 = 0 | CSF1R 0 | CSK 0 | CSNK1A1 = 0 | CSNK1D 0 | DDR1 = 0 | DYRK1B 0 | DYRK2 = 0

O=C(NCCN1CCOCC1)Nc1nc2ccc(Sc3nnc4ccc(-c5ccc(F)cc5)nn34)cc2s1 (10 µM)
inactive: CDK7 = 0 | CDK9 = 0 | CHEK2 = 0 | CSF1R 0 | CSK 0 | CSNK1A1 = 0 | CSNK1D 0 | DDR1 = 0 | DYRK1B 0 | DYRK2 = 0

NCC1CCC(CNc2nc(NCc3ccccc3OC(F)(F)F)ncc2[N+](=O)[O-])CC1 (stereo not given) [PKC-theta inhibitor] (10 µM)
inactive: CDK7 = 0 | CDK9 = 0 | CHEK2 = 0 | CSF1R 0 | CSK 0 | CSNK1A1 = 0 | CSNK1D 0 | DDR1 = 0 | DYRK1B 0 | DYRK2 = 0

c1nc2c(NC3CCCCC3)nc(Nc3ccc(N4CCOCC4)cc3)nc2[nH]1 [Reversine] (10 µM)
inactive: CDK7 = 0 | CDK9 = 0 | CHEK2 = 0 | CSF1R 0 | CSK 0 | CSNK1A1 = 0 | CSNK1D 0 | DDR1 = 0 | DYRK1B 0 | DYRK2 = 0

Nc1ncc(-c2ccnc(Nc3ccncc3)n2)c(CC2CC2)n1 (10 µM)
inactive: CDK7 = 0 | CDK9 = 0 | CHEK2 = 0 | CSF1R 0 | CSK 0 | CSNK1A1 = 0 | CSNK1D 0 | DDR1 = 0 | DYRK1B 0 | DYRK2 = 0

CCN(CC)CCCC(C)Nc1nc(C)cc(Nc2ccc3nc(C)cc(N)c3c2)n1 (stereo not given) (10 µM)
inactive: CDK7 = 0 | CDK9 = 0 | CHEK2 = 0 | CSF1R 0 | CSK 0 | CSNK1A1 = 0 | CSNK1D 0 | DDR1 = 0 | DYRK1B 0 | DYRK2 = 0

Cc1cc(-n2c(=O)ccc3c[nH]c4nccc-4c32)ccc1F (10 µM)
inactive: CDK7 = 0 | CDK9 = 0 | CHEK2 = 0 | CSF1R 0 | CSK 0 | CSNK1A1 = 0 | CSNK1D 0 | DDR1 = 0 | DYRK1B 0 | DYRK2 = 0

CNC(=O)CNc1cnc2ccc(-c3ccc(OC)c(OC)c3)cc2n1 (10 µM)
inactive: CDK7 = 0 | CDK9 = 0 | CHEK2 = 0 | CSF1R 0 | CSK 0 | CSNK1A1 = 0 | CSNK1D 0 | DDR1 = 0 | DYRK1B 0 | DYRK2 = 0

c1ccc(Cn2c(-c3ccc(OC[C@H](C4CCNCC4)n4c(-c5ccccc5)nc5ccccc54)cc3)nc3ccccc32)cc1 [Deltarasin] (2.5 µM)
inactive: CDK7 = 0 | CDK9 = 0 | CHEK2 = 0 | CSF1R 0 | CSK 0 | CSNK1A1 = 0 | CSNK1D 0 | DDR1 = 0 | DYRK1B 0 | DYRK2 = 0

CN(C)c1ccc(-c2nc3ncc(Cl)c(N4CCN(CC(=O)Nc5nccs5)CC4)c3[nH]2)cc1 (2 µM)
inactive: CDK7 = 0 | CDK9 = 0 | CHEK2 = 0 | CSF1R 0 | CSK 0 | CSNK1A1 = 0 | CSNK1D 0 | DDR1 = 0 | DYRK1B 0 | DYRK2 = 0

NC(=O)c1cnc(-c2ccc(C3(N)CCC3)cc2)c(-c2ccccc2)c1 (10 µM)
inactive: CDK7 = 0 | CDK9 = 0 | CHEK2 = 0 | CSF1R 0 | CSK 0 | CSNK1A1 = 0 | CSNK1D 0 | DDR1 = 0 | DYRK1B 0 | DYRK2 = 0

CCCn1/c(=N/C(=O)c2cccc(C(N)=O)c2)[nH]c2ccccc21 [Takinib] (10 µM)
inactive: CDK7 = 0 | CDK9 = 0 | CHEK2 = 0 | CSF1R 0 | CSK 0 | CSNK1A1 = 0 | CSNK1D 0 | DDR1 = 0 | DYRK1B 0 | DYRK2 = 0

CC(C)n1ncnc1-c1cn2c(n1)-c1ccc(O[C@@H](C)C(N)=O)cc1OCC2 (10 µM)
inactive: CDK7 = 0 | CDK9 = 0 | CHEK2 = 0 | CSF1R 0 | CSK 0 | CSNK1A1 = 0 | CSNK1D 0 | DDR1 = 0 | DYRK1B 0 | DYRK2 = 0
